According to the supplement of paper PMC10849652:
Some of the results follow.

Chains of the proteins cited; added tags and fusions are not shown. Lines headed by an entry give the natural chain unless they say otherwise; changes in a name come on top.
UniProt Q13509, whole entry, looked up: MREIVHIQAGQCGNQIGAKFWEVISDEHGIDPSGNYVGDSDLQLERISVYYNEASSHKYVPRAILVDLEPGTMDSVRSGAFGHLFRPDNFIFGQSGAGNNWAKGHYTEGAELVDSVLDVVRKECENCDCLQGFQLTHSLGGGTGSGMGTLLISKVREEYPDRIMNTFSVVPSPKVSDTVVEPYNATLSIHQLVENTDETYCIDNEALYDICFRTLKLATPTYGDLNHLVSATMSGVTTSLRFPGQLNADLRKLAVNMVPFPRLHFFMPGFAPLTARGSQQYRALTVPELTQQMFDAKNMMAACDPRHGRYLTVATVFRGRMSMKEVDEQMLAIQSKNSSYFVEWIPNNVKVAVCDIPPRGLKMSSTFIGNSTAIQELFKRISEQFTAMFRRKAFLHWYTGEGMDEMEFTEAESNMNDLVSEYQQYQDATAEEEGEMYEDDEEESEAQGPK
UniProt Q8N5M4: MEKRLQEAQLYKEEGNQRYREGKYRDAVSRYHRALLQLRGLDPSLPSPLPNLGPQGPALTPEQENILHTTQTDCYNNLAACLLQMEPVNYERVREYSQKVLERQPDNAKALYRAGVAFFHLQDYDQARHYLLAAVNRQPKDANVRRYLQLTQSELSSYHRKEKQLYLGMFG
UniProt Q6PKC3: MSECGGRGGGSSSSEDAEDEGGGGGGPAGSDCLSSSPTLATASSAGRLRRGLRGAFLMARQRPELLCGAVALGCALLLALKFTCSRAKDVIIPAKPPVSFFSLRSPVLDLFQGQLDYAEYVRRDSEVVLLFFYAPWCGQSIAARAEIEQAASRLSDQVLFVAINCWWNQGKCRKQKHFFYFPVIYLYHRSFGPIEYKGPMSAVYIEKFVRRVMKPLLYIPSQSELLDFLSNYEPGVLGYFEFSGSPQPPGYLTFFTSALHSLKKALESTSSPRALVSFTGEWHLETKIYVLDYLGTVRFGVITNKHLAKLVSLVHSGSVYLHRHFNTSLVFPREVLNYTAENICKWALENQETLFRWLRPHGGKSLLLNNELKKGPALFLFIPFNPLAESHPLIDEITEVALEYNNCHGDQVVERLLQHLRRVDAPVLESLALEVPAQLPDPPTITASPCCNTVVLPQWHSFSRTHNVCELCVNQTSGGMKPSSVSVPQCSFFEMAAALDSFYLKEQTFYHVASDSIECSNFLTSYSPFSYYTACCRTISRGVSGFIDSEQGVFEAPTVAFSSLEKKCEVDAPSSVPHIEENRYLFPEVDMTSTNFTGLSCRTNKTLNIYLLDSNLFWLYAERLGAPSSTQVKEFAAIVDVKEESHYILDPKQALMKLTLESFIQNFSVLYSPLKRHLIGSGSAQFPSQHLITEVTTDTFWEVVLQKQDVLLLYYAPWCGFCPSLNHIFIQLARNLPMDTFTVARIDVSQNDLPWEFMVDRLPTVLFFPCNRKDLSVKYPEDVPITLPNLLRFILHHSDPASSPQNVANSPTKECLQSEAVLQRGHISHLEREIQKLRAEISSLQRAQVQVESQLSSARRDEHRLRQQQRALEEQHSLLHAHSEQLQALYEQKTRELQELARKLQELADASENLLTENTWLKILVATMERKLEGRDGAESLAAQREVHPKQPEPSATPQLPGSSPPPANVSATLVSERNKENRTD
UniProt P30536, whole entry, looked up: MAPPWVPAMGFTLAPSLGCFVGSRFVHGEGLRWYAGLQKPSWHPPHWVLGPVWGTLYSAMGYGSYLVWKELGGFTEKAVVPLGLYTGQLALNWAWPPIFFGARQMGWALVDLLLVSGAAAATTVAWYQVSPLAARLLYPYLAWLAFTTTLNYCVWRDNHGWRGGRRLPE
UniProt P07437, whole entry, looked up: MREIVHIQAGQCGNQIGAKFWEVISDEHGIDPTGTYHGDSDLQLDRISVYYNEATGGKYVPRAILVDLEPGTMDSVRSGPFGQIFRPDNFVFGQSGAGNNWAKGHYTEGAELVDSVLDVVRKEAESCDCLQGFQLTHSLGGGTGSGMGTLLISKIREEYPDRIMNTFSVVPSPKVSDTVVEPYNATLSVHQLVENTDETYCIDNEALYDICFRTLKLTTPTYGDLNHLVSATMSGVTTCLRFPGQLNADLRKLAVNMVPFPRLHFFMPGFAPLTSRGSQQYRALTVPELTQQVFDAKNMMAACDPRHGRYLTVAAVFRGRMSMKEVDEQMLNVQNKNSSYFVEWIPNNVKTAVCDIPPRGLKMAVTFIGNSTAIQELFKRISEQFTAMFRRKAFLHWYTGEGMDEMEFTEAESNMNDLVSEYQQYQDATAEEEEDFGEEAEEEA
UniProt Q99598: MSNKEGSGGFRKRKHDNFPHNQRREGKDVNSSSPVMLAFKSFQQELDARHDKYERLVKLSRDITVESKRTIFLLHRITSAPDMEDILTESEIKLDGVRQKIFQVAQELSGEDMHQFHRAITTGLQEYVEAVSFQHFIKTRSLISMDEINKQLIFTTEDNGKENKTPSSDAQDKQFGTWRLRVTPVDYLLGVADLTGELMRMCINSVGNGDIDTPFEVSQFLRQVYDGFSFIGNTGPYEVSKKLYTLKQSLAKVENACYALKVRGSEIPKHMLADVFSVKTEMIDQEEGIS
UniProt Q13454: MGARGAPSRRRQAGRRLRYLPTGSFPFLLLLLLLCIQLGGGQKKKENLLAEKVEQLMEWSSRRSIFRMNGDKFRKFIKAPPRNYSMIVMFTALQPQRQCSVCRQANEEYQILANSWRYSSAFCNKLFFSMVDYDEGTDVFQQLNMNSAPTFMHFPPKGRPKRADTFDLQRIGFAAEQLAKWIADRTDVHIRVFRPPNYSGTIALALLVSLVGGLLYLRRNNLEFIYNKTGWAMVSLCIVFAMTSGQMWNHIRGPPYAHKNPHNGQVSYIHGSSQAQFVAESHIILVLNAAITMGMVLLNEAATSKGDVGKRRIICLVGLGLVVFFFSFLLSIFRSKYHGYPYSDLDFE
UniProt Q9UJK0: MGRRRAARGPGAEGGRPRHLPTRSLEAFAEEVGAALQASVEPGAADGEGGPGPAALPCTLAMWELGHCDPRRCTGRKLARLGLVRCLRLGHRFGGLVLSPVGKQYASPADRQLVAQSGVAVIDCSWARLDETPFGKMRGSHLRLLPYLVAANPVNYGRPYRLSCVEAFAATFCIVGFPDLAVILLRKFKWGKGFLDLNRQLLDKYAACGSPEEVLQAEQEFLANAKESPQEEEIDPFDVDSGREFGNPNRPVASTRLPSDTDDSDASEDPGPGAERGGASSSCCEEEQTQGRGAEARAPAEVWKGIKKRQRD
UniProt Q7Z6J9: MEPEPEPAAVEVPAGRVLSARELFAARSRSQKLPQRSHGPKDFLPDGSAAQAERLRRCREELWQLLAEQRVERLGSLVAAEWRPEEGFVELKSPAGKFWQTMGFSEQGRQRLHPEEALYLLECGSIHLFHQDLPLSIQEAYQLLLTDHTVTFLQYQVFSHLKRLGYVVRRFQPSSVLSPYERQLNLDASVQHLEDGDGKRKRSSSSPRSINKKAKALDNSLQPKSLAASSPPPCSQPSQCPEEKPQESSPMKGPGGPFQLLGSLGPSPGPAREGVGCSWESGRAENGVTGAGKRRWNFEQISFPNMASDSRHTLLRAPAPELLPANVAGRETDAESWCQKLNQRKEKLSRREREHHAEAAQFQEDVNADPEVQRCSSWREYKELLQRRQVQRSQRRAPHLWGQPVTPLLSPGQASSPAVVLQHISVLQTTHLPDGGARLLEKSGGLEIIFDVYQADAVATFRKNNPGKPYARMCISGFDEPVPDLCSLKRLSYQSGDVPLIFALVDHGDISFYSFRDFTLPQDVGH
UniProt Q9GZX9: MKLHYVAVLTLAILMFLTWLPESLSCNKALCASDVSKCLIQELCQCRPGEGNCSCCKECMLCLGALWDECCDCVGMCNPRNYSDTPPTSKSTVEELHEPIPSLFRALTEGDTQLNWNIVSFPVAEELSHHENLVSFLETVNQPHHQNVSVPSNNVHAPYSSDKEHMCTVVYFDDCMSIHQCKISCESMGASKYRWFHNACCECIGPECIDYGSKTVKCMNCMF
UniProt Q9NNW7, whole entry, looked up: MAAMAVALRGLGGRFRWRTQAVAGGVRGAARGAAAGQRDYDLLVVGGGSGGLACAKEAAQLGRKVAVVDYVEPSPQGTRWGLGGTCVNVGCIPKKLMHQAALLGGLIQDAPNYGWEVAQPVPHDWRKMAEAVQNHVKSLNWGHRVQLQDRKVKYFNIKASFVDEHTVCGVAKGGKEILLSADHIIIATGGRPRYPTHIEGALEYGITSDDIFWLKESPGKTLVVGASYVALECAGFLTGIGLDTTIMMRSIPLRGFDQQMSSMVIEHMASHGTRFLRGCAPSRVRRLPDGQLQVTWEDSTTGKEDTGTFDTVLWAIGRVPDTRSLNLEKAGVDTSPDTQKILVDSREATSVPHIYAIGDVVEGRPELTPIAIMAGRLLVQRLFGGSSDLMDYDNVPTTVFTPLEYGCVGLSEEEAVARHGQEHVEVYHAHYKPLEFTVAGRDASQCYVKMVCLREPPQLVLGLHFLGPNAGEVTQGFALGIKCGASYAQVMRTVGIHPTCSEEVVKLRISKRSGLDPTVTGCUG
UniProt Q5T6F2: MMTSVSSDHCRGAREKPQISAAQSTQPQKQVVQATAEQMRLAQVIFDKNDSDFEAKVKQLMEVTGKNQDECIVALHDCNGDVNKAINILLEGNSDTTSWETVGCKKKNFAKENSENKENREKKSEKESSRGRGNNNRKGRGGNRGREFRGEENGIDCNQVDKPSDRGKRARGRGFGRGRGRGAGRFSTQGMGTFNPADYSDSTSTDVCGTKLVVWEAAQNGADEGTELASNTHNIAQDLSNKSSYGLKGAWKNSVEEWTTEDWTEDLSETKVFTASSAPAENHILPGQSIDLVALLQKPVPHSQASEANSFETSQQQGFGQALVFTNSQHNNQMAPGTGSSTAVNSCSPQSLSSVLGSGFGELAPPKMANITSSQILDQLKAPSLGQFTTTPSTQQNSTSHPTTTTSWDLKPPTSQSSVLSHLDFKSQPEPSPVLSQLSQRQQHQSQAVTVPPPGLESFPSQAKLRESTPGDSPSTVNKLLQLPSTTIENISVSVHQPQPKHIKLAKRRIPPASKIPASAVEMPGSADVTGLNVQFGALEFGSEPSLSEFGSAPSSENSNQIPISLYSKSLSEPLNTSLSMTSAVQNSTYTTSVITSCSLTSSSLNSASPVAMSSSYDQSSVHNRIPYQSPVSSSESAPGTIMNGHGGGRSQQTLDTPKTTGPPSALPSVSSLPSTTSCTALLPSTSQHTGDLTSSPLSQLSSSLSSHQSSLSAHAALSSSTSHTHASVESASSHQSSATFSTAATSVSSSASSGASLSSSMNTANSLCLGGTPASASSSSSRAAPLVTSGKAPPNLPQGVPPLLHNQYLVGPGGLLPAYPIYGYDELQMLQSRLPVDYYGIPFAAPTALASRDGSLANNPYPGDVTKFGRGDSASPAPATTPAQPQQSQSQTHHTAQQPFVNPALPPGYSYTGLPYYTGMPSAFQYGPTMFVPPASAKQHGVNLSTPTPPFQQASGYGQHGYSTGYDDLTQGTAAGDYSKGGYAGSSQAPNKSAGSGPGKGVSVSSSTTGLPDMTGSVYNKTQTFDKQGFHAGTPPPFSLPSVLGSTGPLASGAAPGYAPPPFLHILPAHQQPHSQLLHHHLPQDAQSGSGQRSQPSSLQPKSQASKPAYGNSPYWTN
UniProt P23258, whole entry, looked up: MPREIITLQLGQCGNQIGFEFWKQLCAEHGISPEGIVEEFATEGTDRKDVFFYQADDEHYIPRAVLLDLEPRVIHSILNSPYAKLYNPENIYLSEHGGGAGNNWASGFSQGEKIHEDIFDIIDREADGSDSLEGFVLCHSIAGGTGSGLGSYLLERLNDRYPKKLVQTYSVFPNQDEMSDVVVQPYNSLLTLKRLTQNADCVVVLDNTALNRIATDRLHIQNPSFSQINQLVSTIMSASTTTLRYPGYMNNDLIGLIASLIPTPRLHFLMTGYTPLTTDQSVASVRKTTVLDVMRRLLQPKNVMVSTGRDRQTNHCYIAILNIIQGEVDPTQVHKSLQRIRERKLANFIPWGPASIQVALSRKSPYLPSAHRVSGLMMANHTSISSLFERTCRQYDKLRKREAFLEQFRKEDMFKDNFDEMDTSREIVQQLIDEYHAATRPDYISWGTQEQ
UniProt P63146, whole entry, looked up: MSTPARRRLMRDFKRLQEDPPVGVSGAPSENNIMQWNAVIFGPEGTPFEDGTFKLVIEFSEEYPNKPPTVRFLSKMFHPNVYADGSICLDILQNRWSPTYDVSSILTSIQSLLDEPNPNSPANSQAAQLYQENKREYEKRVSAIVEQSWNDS
UniProt Q8NBM4: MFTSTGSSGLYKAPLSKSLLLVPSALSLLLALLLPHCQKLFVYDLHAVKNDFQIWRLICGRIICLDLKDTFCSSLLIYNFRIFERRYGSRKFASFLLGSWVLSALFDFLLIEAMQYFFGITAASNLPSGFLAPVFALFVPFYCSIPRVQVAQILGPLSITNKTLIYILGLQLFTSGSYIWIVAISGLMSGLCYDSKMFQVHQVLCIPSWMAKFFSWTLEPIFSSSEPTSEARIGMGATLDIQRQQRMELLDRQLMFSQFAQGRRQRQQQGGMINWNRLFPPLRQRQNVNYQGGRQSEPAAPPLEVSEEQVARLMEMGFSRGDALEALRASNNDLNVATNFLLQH

Experiments:
Assay in all cases: log2 fold change, soluble protein after heating vs DMSO (PISA); higher = thermal stabilisation; K562 cells, 10 uM, 30 min; active = over 0.2 and 3.5 SD of the protein, either way, in both replicates (recomputed)
[1] = compound: CN1CCN(CCOc2cc(OC3CCOCC3)c3c(Nc4c(Cl)ccc5c4OCO5)ncnc3c2)CC1 [saracatinib]
Method in brief: (§1)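 For each measurement, 10 μM compound was applied for 30 min to K562 cells at 2×10^6 cells/mL. Aliquots were heated for 3 min across 48°C-58°C, pooled, and extracted in PBS with 0.5% NP-40 at 4°C; the supernatant after 21,000xg for 90 min was soluble protein. This was quantified by TMTpro 16plex LC-MS/MS with channel sums equalised, and thermal stability was reported relative to control samples from duplicates, on a log2 fold-change scale.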

[2] = compound: CN1CCN(c2nc(C3=C(c4c[nH]c5ccccc45)C(=O)NC3=O)c3ccccc3n2)CC1 [sotrastaurin]
Method in brief: as §1

[3] = compound: CN1CC[C@H](c2c(O)cc(O)c3c(=O)cc(-c4ccccc4Cl)oc23)[C@H](O)C1 [alvocidib]
Method in brief: as §1

[4] = compound: CN1CCc2c(c3ccccc3n2Cc2ccc(C(=O)NO)cc2)C1 [Tubastatin A]
Method in brief: as §1

[5] = compound: CNC(=O)C1=CC=CC=C1NC2=NC(=NC=C2Cl)NC3=C(C=C(C=C3)N4CCOCC4)OC
Method in brief: as §1

[6] = compound: CNC(=O)c1ccc(Nc2ncc(C(F)(F)F)c(NCc3nccnc3N(C)S(C)(=O)=O)n2)cc1 [defactinib]
Method in brief: as §1

[7] = compound: CNCc1ccc(-c2[nH]c3cc(F)cc4c3c2CCNC4=O)cc1 [rucaparib]
Method in brief: as §1

[8] = compound: CNc1nc(-c2ccc3c(N)n[nH]c3c2)cc(N2C[C@@H](C(=O)NC3CCCCC3)CC[C@H]2C)n1
Method in brief: as §1

[9] = compound: COC(=O)N[C@@H](C)CNc1nccc(-c2cn(C(C)C)nc2-c2cc(Cl)cc(NS(C)(=O)=O)c2F)n1 [encorafenib]
Method in brief: as §1

[10] = compound: COC(=O)[C@H](CCSC)NC(=O)C1=C(C=C(C=C1)NC[C@H](CS)N)C2=CC=CC=C2
Method in brief: as §1

Measured: log2 fold change

TUBB2A (UniProt Q13885)
inactive: [1] 0.048 | [2] 0.032 | [3] -0.004 | [4] -0.07 | [5] -0.069 | [6] 0.003 | [7] -0.052 | [8] -0.024 | [9] -0.02 | [10] 0.052

TUBB3 (UniProt Q13509)
inactive: [1] 0.062 | [2] 0.012 | [3] -0.039 | [4] -0.061 | [5] -0.088 | [6] -0.025 | [7] 0.036 | [8] 0.021 | [9] -0.005 | [10] 0.016

UBA3 (UniProt Q8TBC4)
inactive: [1] 0.04 | [2] -0.07 | [3] -0.154 | [4] 0.009 | [5] -0.027 | [6] -0.067 | [7] -0.063 | [8] 0.051 | [9] 0.036 | [10] -0.011

UBE2V2 (UniProt Q15819)
inactive: [1] 0.012 | [2] 0.029 | [3] -0.047 | [4] -0.007 | [5] -0.009 | [6] -0.009 | [7] 0.052 | [8] 0.005 | [9] -0.046 | [10] 0.009

Quoted from above (2 entries):
TUBB2A (UniProt Q13885)
inactive: [1] 0.048 | [2] 0.032 | [3] -0.004 | [4] -0.07 | [5] -0.069 | [6] 0.003 | [7] -0.052 | [8] -0.024 | [9] -0.02 | [10] 0.052

TUBB3 (UniProt Q13509)
inactive: [1] 0.062 | [2] 0.012 | [3] -0.039 | [4] -0.061 | [5] -0.088 | [6] -0.025 | [7] 0.036 | [8] 0.021 | [9] -0.005 | [10] 0.016

(cont.)

TTC9C (UniProt Q8N5M4)
inactive: [1] -0.032 | [2] -0.08 | [3] -0.053 | [4] 0.059 | [5] 0.092 | [6] -0.083 | [7] 0.017 | [8] -0.063 | [9] 0.032 | [10] -0.042

TXNDC11 (UniProt Q6PKC3)
inactive: [1] -0.053 | [2] 0.009 | [3] -0.057 | [4] 0.067 | [5] 0.005 | [6] -0.009 | [7] -0.083 | [8] -0.022 | [9] 0.038 | [10] -0.028

TSPO (UniProt P30536)
inactive: [1] 0.116 | [2] 0.047 | [3] 0.042 | [4] 0.026 | [5] 0.064 | [6] -0.013 | [7] -0.097 | [8] -0.068 | [9] 0.009 | [10] 0.11

TXN (UniProt P10599)
inactive: [1] 0.049 | [2] 0.07 | [3] -0.001 | [4] -0.041 | [5] -0.024 | [6] -0.01 | [7] -0.06 | [8] -0.029 | [9] -0.013 | [10] 0.08

TUBB (UniProt P07437)
inactive: [1] -0.033 | [2] 0.038 | [3] -0.108 | [4] -0.011 | [5] -0.057 | [6] 0.004 | [7] -0.022 | [8] 0.02 | [9] -0.007 | [10] 0.006

TSNAX (UniProt Q99598)
inactive: [1] 0.035 | [2] 0.044 | [3] -0.002 | [4] 0.009 | [5] -0.006 | [6] -0.006 | [7] 0.014 | [8] -0.053 | [9] -0.017 | [10] 0.005

TUSC3 isoform 2 (UniProt Q13454)
inactive: [1] -0.017 | [2] -0.065 | [3] 0.083 | [4] -0.018 | [5] 0.033 | [6] 0.04 | [7] -0.047 | [8] -0.018 | [9] 0.115 | [10] 0.046

TSR2 (UniProt Q969E8)
inactive: [1] 0.024 | [2] 0.07 | [3] -0.162 | [4] 0.109 | [5] 0.041 | [6] -0.043 | [7] -0.041 | [8] -0.045 | [9] 0.055 | [10] 0.007

TUBA1C (UniProt Q9BQE3)
inactive: [1] 0.057 | [2] -0.008 | [3] -0.021 | [4] -0.032 | [5] 0.005 | [6] -0.066 | [7] 0.034 | [8] 0.048 | [9] -0.019 | [10] 0.003

TXNDC9 (UniProt O14530)
inactive: [1] -0.026 | [2] -0.045 | [3] -0.009 | [4] 0.082 | [5] 0.041 | [6] -0.029 | [7] -0.015 | [8] -0.008 | [9] 0.009 | [10] 0.038

TUBB4B (UniProt P68371)
inactive: [1] 0.013 | [2] 0.009 | [3] -0.081 | [4] -0.078 | [5] -0.065 | [6] -0.042 | [7] -0.013 | [8] -0.011 | [9] -0.02 | [10] -0.019

UBA2 (UniProt Q9UBT2)
inactive: [1] 0.002 | [2] -0.018 | [3] -0.117 | [4] 0.001 | [5] 0.087 | [6] -0.066 | [7] -0.063 | [8] -0.04 | [9] 0.011 | [10] -0.008

UBAC1 (UniProt Q9BSL1)
inactive: [1] 0.02 | [2] -0.07 | [3] -0.109 | [4] 0.059 | [5] 0.049 | [6] -0.102 | [7] -0.072 | [8] -0.044 | [9] 0.024 | [10] -0.035

TUFM (UniProt P49411)
inactive: [1] -0.057 | [2] -0.05 | [3] -0.197 | [4] -0.142 | [5] 0.017 | [6] -0.049 | [7] -0.062 | [8] 0.099 | [9] 0.026 | [10] -0.031

TSR3 (UniProt Q9UJK0)
inactive: [1] 0.022 | [2] 0.08 | [3] 0.135 | [4] 0.053 | [5] -0.001 | [6] 0.068 | [7] 0.024 | [8] 0.008 | [9] 0.006 | [10] 0.041

TXNDC12 (UniProt O95881)
inactive: [1] -0.138 | [2] 0.047 | [3] 0.05 | [4] -0.006 | [5] 0.043 | [6] 0.019 | [7] 0.004 | [8] -0.04 | [9] 0.056 | [10] -0.026

TSEN54 (UniProt Q7Z6J9)
inactive: [1] -0.098 | [2] -0.006 | [3] -0.082 | [4] 0 | [5] -0.181 | [6] 0.012 | [7] -0.214 | [8] 0.119 | [9] -0.005 | [10] -0.013

TWSG1 (UniProt Q9GZX9)
inactive: [1] 0.066 | [2] 0.039 | [3] 0.022 | [4] -0.026 | [5] 0 | [6] -0.024 | [7] -0.003 | [8] -0.06 | [9] 0 | [10] 0.078

TXNRD2 (UniProt Q9NNW7)
inactive: [1] 0.043 | [2] 0.058 | [3] -0.067 | [4] -0.019 | [5] 0.117 | [6] -0.047 | [7] -0.027 | [8] -0.064 | [9] 0.045 | [10] 0.029

UBAP2 (UniProt Q5T6F2)
inactive: [1] 0.005 | [2] 0.04 | [3] 0.005 | [4] -0.022 | [5] -0.029 | [6] -0.007 | [7] -0.016 | [8] -0.044 | [9] -0.038 | [10] 0.022

TUBG1 (UniProt P23258)
inactive: [1] -0.028 | [2] 0 | [3] 0.018 | [4] 0.075 | [5] -0.03 | [6] -0.004 | [7] 0.039 | [8] -0.063 | [9] -0.023 | [10] 0.031

UBE2B (UniProt P63146)
inactive: [1] -0.017 | [2] -0.011 | [3] -0.026 | [4] -0.084 | [5] 0.058 | [6] -0.088 | [7] -0.035 | [8] -0.072 | [9] 0.043 | [10] -0.031

UBAC2 (UniProt Q8NBM4)
inactive: [1] 0.108 | [2] -0.021 | [3] -0.061 | [4] 0.051 | [5] -0.02 | [6] 0.063 | [7] 0.173 | [8] -0.148 | [9] 0.063 | [10] -0.053

TXLNA (UniProt P40222)
inactive: [1] 0.014 | [2] 0.019 | [3] -0.085 | [4] 0.016 | [5] -0.01 | [6] -0.056 | [7] -0.022 | [8] 0 | [9] 0.01 | [10] 0.008

TTL (UniProt Q8NG68)
inactive: [1] 0 | [2] -0.052 | [3] -0.053 | [4] 0.047 | [5] -0.008 | [6] 0.021 | [7] 0 | [8] -0.017 | [9] -0.022 | [10] -0.039
